From PMC4879264
Results are given in words; binding and its absence hold for the method and conditions named. Binding seen in cells or lysates may run through a third protein. Some results given as binding are weak or reduced against the parent protein; the word gives no strength.

By UniProt entry, the sequences of proteins in these tests, tags left out.
UniProt P45481: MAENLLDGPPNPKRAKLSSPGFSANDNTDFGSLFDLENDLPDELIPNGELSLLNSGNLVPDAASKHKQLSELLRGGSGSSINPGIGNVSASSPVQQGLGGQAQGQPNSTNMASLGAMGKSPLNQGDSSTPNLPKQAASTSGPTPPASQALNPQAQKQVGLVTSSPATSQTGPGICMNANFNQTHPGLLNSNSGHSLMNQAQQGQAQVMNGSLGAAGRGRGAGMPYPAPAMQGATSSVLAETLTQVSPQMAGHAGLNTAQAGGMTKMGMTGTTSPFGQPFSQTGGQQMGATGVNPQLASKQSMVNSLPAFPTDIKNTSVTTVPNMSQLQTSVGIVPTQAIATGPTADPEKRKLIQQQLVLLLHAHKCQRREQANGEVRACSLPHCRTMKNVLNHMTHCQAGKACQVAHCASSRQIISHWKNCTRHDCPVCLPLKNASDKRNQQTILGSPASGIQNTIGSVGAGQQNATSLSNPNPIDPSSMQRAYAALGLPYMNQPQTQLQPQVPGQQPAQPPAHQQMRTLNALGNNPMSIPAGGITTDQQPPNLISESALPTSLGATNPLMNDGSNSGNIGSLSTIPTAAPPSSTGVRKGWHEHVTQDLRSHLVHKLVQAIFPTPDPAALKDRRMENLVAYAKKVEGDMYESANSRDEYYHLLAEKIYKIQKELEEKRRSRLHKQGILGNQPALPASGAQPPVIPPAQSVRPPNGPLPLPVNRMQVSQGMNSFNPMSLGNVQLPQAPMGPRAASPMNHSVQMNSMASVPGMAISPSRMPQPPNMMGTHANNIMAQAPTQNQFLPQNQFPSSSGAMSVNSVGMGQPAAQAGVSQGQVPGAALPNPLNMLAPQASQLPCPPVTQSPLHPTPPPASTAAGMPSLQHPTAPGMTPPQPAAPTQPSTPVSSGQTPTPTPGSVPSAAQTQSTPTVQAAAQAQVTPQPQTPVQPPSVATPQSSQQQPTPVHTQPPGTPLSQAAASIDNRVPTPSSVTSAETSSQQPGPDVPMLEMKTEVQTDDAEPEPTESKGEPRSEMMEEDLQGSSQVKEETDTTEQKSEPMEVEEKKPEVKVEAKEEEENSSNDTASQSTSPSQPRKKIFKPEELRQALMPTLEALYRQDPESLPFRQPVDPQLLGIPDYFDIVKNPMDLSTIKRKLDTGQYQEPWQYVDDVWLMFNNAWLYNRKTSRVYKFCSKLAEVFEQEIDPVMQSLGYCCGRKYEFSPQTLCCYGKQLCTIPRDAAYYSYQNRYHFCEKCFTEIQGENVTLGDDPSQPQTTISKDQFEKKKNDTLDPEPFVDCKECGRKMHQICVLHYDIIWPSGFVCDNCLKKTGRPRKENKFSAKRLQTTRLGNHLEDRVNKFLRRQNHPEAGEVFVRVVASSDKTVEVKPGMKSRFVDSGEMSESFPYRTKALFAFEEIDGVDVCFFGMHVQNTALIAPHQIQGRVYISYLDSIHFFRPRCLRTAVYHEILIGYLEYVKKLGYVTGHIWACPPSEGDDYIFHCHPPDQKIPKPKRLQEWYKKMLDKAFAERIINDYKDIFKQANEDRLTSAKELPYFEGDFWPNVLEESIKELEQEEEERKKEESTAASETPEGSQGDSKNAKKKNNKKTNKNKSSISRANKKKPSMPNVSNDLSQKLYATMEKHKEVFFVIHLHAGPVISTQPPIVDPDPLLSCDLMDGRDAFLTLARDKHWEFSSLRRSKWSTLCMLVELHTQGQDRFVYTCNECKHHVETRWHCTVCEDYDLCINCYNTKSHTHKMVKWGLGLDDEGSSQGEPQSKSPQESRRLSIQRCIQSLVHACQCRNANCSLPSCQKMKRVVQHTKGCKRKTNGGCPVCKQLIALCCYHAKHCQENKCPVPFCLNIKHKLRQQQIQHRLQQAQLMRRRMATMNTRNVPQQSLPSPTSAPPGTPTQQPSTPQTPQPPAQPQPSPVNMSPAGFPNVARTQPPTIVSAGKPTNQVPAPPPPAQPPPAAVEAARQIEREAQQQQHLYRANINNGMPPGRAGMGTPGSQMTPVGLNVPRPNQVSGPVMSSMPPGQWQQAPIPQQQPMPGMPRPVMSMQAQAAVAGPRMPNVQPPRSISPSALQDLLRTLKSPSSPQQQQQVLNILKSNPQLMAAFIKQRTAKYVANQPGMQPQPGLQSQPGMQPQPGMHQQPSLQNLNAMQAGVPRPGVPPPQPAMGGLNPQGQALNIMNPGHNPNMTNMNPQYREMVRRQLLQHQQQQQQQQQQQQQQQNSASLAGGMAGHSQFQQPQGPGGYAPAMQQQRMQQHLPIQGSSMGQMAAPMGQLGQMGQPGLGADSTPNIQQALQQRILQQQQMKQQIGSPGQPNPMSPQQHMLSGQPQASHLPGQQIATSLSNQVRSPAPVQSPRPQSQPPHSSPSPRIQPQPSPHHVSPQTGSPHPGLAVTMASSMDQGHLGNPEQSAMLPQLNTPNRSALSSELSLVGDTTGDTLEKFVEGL

T1: Nrf2 (NF-E2-related factor-2) (mouse (endogenous in Raw264.7)) (UniProt Q60795)
T1 sequence: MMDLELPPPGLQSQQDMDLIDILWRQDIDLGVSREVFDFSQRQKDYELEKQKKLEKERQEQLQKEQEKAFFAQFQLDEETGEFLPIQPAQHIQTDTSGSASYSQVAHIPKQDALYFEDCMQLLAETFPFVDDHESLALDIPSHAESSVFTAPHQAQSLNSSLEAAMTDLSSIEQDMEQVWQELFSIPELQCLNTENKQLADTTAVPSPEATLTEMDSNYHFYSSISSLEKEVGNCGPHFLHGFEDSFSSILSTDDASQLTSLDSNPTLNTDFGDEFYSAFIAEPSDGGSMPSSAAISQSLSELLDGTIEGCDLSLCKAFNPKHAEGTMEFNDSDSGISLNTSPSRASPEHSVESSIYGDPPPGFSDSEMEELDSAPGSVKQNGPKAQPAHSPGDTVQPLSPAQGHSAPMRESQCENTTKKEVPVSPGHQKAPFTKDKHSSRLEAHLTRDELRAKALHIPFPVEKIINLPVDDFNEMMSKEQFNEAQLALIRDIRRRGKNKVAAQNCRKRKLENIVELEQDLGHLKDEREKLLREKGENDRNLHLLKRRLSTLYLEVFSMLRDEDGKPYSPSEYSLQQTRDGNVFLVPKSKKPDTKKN

B1: MED16 (protein, UniProt Q6PGF3 1-828)
chain: MDLAYVCEWEKWAKSTYCPSLPLACAWSCRNLIAFTTDLRNDDQDLTHMIHILDTEHPWEVHSVSSGHSEAITCLEWDQSGSRLLSADADGQIKCWSMADHLANSWESSVGSQVEGDPIVALSWLHNGVKLALHVEKSGASSFGEKFSRVKFSPSLTLFGGKPMEGWIAVTVSGLVTVSLLKPSGQVLTSTESLCRLRGRVALADIAFTGGGNIVVAAADGSSASPVKFYKVCVSVVSEKCRIDTEILPSLFMRCTTDPNRKDRFPAITHLKFLARDMSEQVLLCASSQTSSLVECWSLRKEGLPVNNIFQQISPVVGDKQPMILKWRILSATNDLDRVSAVALPKLPISLTNTDLKVASDTQFYPGLGLALAFQDGSVHMVHRLSLQTMAVFYSSAPRSLDEPALKRPRTTCPAVHFKAMQLSWTSLALVGIDNHGKLSMLRISPSLGHPLEPKLALQHLLFLLEYCMVTGYDWWDILLHVQPGMVQSLVERLHEEYTRQKPALQQVLSTRILAMKASLCKLSPCTVARVCDYHTKLFLMAITSTLKSLLRPHFLNTPDKSPGDRLAEICAKITDVDIDKVMINLKTEEFVLDMNTLQALQQLLQWVGDFVLYLLVSLPNQGSPLRPGHSFLRDGTSLGMLRELMVVIRIWGLLKPSCLPVYTATSDTQDSMSLLFRLLTKLWICCRDEGAASEPDEGLVDECCLLPSQLLVPNLDWLPASDGLVSRLQPKQPLRLRFGRAPTLPSSTSTLQLDGLTRAPGQPKIDHLRRLHLGAYPTEECKACTRCGCVTMLKSPNKTTAVTQWEQRWIKNCLCGGLWRRVPLSCS
B2: MED24 (protein, UniProt Q99K74 1-987)
chain: MKVVNLKQAILQAWKERWSDYQWAINMKKFFPKGATWDILNLAEALLEQAMIGPSPNPLILSYLKYAISSQMVSCSSVLTAISKFDDFSRDLCVQALLDIMDMFCDRLSCHGKAEECIGLCRALLSALHWLLRCTAASAERLQEGLEAGTPAPGEKQLALCLQCLEKTLSSTKNRALLHIAKLEEASSWTAIEHSLLKLGEILANLSNPQLRSQAERCGTLIRSIPSMLSVHSEQLHKTGFPTIHALILLEGTMNLTGEMQPLVEQLMMVKRMQHIPTPLFVLEIWKACFVGLIESPEGTQELKWTAFTYLKIPQVLVKLKKYFHGEKDFTEDVNCAFEFLLKLTPLLDKADQRCNCDCTNFLLQECNKQGLLSEVNFASLVGKRTADRDPQLKSSENANIQPNPGLILRAEPTVTNILKTMDADHSKSPEGLLGVLGHMLSGKSLDLLLAAAAATGKLKSFARKFINLNEFTTHGSGESTKTASVRALLFDISFLMLCHVAQTYGSEVILSESSSGEEVPFFETWMQTCMPEEGKILNPDHPCFRPDSTKVESLVALLNNSSEMKLVQMKWHEACLSISAAILEILNAWENGVLAFESIQKITDNIKGKVCSLAVCAVAWLVAHVRMLGLDEREKSLQMIRQLAGPLYSENTLQFYNERVVIMNSILEHMCADVLQQTATQIKFPSTGVDTMPYWNLLPPKRPIKEVLTDIFAKVLEKGWVDSRSIHILDTLLHMGGVYWFCNNLIKELLKETRKEHTLRAVQLLYSIFCLDMQQVTLVLLGHILPGLLTDSSKWHSLMDPPGTALAKLAVWCALSSYSSHKGQASSRQKKRHREDIEDYVSLFPVEDMQPSKLMRLLSSSDDDANILSSPTDRSMNSSLSASQLHTVNMRDPLNRVLANLFLLISSILGSRTAGPHTQFVQWFMEECVGCLEQDSRGSILQFMPFTTVSELVKVSAMSSPKVVLAITDLSLPLGRQVAAKAIAAL

Molecular target: T1, Nrf2 (NF-E2-related factor-2) (mouse (endogenous in Raw264.7))
Assay: co-IP; Raw264.7 cells treated 4 h with 100 uM DEM with or without 20 ng/ml LPS; cells crosslinked with 0.5 mM DTME and 0.5 mM DSP, lysed in RIPA buffer; immunoprecipitation with an Nrf2-specific antibody, immunoblot of the precipitate

binding, binds:
CBP (from UniProt P45481 1-2441)
B1
B2
